Results taken from EPA's CvTdb concentration-time database.

How the values were obtained:
Assay in all cases: concentration in plasma after dosing
Rat [1] = details: dosed: Benzophenone, 10 mg/kg, oral, Male, F344
Mouse [2] = details: 1 h; dosed: Benzophenone; 15 mg/kg; iv; Male; B6C3F1
Mouse [3] = details: 0.5 h; dosed: Benzophenone; 30 mg/kg; oral; Male; B6C3F1
Rat [4] = details: dosed: Benzophenone, 10 mg/kg, oral, Female, F344
Rat [5] = details: dosed: Benzophenone, 5 mg/kg, oral, Female, F344
Rat [6] = details: dosed: Benzophenone, 10 mg/kg, oral, Male, F344; remark: listed apart in the source
Mouse [7] = details: 10 min; dosed: Benzophenone; 15 mg/kg; iv; Male; B6C3F1
Rat [8] = details: dosed: Benzophenone, 5 mg/kg, oral, Male, F344
Mouse [9] = details: 10 min; dosed: Benzophenone; 15 mg/kg; oral; Female; B6C3F1
Mouse [10] = details: 1 h; dosed: Benzophenone; 15 mg/kg; iv; Male; B6C3F1; remark: listed apart in the source
Mouse [11] = details: 0.75 h; dosed: Benzophenone; 15 mg/kg; iv; Female; B6C3F1
Mouse [12] = details: 1 h; dosed: Benzophenone; 60 mg/kg; oral; Male; B6C3F1
Mouse [13] = details: 0.75 h; dosed: Benzophenone; 15 mg/kg; iv; Male; B6C3F1
Rat [14] = details: dosed: Benzophenone, 10 mg/kg, oral, Male, F344; remark: listed apart in the source
Mouse [15] = details: 7 min; dosed: Benzophenone; 15 mg/kg; iv; Female; B6C3F1
Mouse [16] = details: 3 h; dosed: Benzophenone; 30 mg/kg; oral; Female; B6C3F1
Mouse [17] = details: 1.5 h; dosed: Benzophenone; 30 mg/kg; oral; Female; B6C3F1
Mouse [18] = details: 1 h; dosed: Benzophenone; 15 mg/kg; oral; Male; B6C3F1
Mouse [19] = details: 1 h; dosed: Benzophenone; 15 mg/kg; oral; Male; B6C3F1; remark: listed apart in the source
Rat [20] = details: dosed: Benzophenone, 10 mg/kg, oral, Female, F344; remark: listed apart in the source
Mouse [21] = details: 2 h; dosed: Benzophenone; 30 mg/kg; oral; Female; B6C3F1
Mouse [22] = details: 5 min; dosed: Benzophenone; 30 mg/kg; oral; Male; B6C3F1
Mouse [23] = details: 1.25 h; dosed: Benzophenone; 15 mg/kg; iv; Male; B6C3F1

O=C(c1ccccc1)c1ccccc1 [Benzophenone]
Details | concentration in plasma [ng/mL]
Rat [1], 6 h | 193
Rat [1], 10 min | 402
Rat [4], 0.5 h | 414
Rat [4], 10 h | 76.7
Rat [5], 0.125 h | 160
Rat [5], 3 h | 99.3
Rat [6], 1 h | 290
Rat [6], 2.5 min | 63.8
Rat [8], 0.5 h | 172
Rat [8], 10 h | 53.4
Rat [14], 0.125 h | 225
Rat [14], 3 h | 225
Rat [20], 0.125 h | 527
Rat [20], 3 h | 74.6

Details | concentration in plasma [ng/mL]
Mouse [2] | 463
Mouse [3] | 590
Mouse [7] | 4010
Mouse [9] | 564
Mouse [10] | 211
Mouse [11] | 381
Mouse [12] | 661
Mouse [13] | 504
Mouse [15] | 3420
Mouse [16] | 63.3
Mouse [17] | 182
Mouse [18] | 132
Mouse [19] | 170
Mouse [21] | 146
Mouse [22] | 537
Mouse [23] | 252
